Assay [1] addresses full-length wild-type human L1 expressed in COS7 cells (human) (UniProt P32004). In words: immunofluorescence on COS cells expressing wild-type L1 (FIG. 2A).
Assay [2] shares this target. Nature of the assay: immunodetection with anti-Fc antibodies on COS7 cells transfected with full-length wild-type L1.
Assay [3] has the same target. Nature of the assay: immunofluorescence on L1-expressing cells (FIG. 3).
Assay [4] has the same target. Nature of the assay: immunofluorescence on COS7 cells transfected with full-length wild-type L1.
Assay [5] concerns the target T1, wild-type L1Fc chimeric protein (human, UniProt P32004 20-1120).
T1 construct: Produced in COS-7 cells, purified on protein A-Sepharose; in the two-color assay it was held on anti-human IgG coated beads; also called soluble L1; wt; not shown: immunoglobulin Fc, human (cross-linked with anti-human Fc antibodies)
Nature of the assay: two-color FACS bead aggregation (FIG. 2B).

Assay [6] concerns the target T1, wild-type L1Fc chimeric protein. In words: two-color FACS bead aggregation.
Assay [7] shares this target. In words: two-color FACS bead aggregation, mutant to wild-type (FIG. 2B).

Results are given in words; binding and its absence hold for the method and conditions named. Some binding calls cover weakened binding; strength is not graded here.

Regarding “L120V mutant L1Fc chimera (from UniProt P32004 20-1120) (Fc fusion)”, in assay [1], the binding entry is on record as “binds”.

Regarding “wild-type L1Fc chimeric protein (from UniProt P32004 20-1120) (Fc fusion)”, the binding result in assay [2] and in assay [3] was “binds” in each case.

B1: A426D mutant L1Fc chimera (Fc fusion, UniProt P32004 20-1120, looked up)
chain: IQIPEEYEGHHVMEPPVITEQSPRRLVVFPTDDISLKCEASGKPEVQFRWTRDGVHFKPKEELGVTVYQSPHSGSFTITGNNSNFAQRFQGIYRCFASNKLGTAMSHEIRLMAEGAPKWPKETVKPVEVEEGESVVLPCNPPPSAEPLRIYWMNSKILHIKQDERVTMGQNGNLYFANVLTSDNHSDYICHAHFPGTRTIIQKEPIDLRVKATNSMIDRKPRLLFPTNSSSHLVALQGQPLVLECIAEGFPTPTIKWLRPSGPMPADRVTYQNHNKTLQLLKVGEEDDGEYRCLAENSLGSARHAYYVTVEAAPYWLHKPQSHLYGPGETARLDCQVQGRPQPEVTWRINGIPVEELAKDQKYRIQRGALILSNVQPSDTMVTQCEARNRHGLLLANAYIYVVQLPDKILTADNQTYMAVQGSTAYLLCKAFGAPVPSVQWLDEDGTTVLQDERFFPYANGTLGIRDLQANDTGRYFCLAANDQNNVTIMANLKVKDATQITQGPRSTIEKKGSRVTFTCQASFDPSLQPSITWRGDGRDLQELGDSDKYFIEDGRLVIHSLDYSDQGNYSCVASTELDVVESRAQLLVVGSPGPVPRLVLSDLHLLTQSQVRVSWSPAEDHNAPIEKYDIEFEDKEMAPEKWYSLGKVPGNQTSTTLKLSPYVHYTFRVTAINKYGPGEPSPVSETVVTPEAAPEKNPVDVKGEGNETTNMVITWKPLRWMDWNAPQVQYRVQWRPQGTRGPWQEQIVSDPFLVVSNTSTFVPYEIKVQAVNSQGKGPEPQVTIGYSGEDYPQAIPELEGIEILNSSAVLVKWRPVDLAQVKGHLRGYNVTYWREGSQRKHSKRHIHKDHVVVPANTTSVILSGLRPYSSYHLEVQAFNGRGSGPASEFTFSTPEGVPGHPEALHLECQSNTSLLLRWQPPLSHNGVLTGYVLSYHPLDEGGKGQLSFNLRDPELRTHNLTDLSPHLRYRFQLQATTKEGPGEAIVREGGTMALSGISDFGNISATAGENYSVVSWVPKEGQCNFRFHILFKALGEEKGGASLSPQYVSYNQSSYTQWDLQPDTDYEIHLFKERMFRHQMAVKTNGTGRVRLPPAGFATE
notes: not shown: immunoglobulin Fc, human
With B1, the binding entry in assay [1], in assay [4] and in assay [5] was “binds” throughout.

B2: H210Q mutant L1Fc chimera (Fc fusion, UniProt P32004 20-1120, looked up)
chain: IQIPEEYEGHHVMEPPVITEQSPRRLVVFPTDDISLKCEASGKPEVQFRWTRDGVHFKPKEELGVTVYQSPHSGSFTITGNNSNFAQRFQGIYRCFASNKLGTAMSHEIRLMAEGAPKWPKETVKPVEVEEGESVVLPCNPPPSAEPLRIYWMNSKILHIKQDERVTMGQNGNLYFANVLTSDNHSDYICQAHFPGTRTIIQKEPIDLRVKATNSMIDRKPRLLFPTNSSSHLVALQGQPLVLECIAEGFPTPTIKWLRPSGPMPADRVTYQNHNKTLQLLKVGEEDDGEYRCLAENSLGSARHAYYVTVEAAPYWLHKPQSHLYGPGETARLDCQVQGRPQPEVTWRINGIPVEELAKDQKYRIQRGALILSNVQPSDTMVTQCEARNRHGLLLANAYIYVVQLPAKILTADNQTYMAVQGSTAYLLCKAFGAPVPSVQWLDEDGTTVLQDERFFPYANGTLGIRDLQANDTGRYFCLAANDQNNVTIMANLKVKDATQITQGPRSTIEKKGSRVTFTCQASFDPSLQPSITWRGDGRDLQELGDSDKYFIEDGRLVIHSLDYSDQGNYSCVASTELDVVESRAQLLVVGSPGPVPRLVLSDLHLLTQSQVRVSWSPAEDHNAPIEKYDIEFEDKEMAPEKWYSLGKVPGNQTSTTLKLSPYVHYTFRVTAINKYGPGEPSPVSETVVTPEAAPEKNPVDVKGEGNETTNMVITWKPLRWMDWNAPQVQYRVQWRPQGTRGPWQEQIVSDPFLVVSNTSTFVPYEIKVQAVNSQGKGPEPQVTIGYSGEDYPQAIPELEGIEILNSSAVLVKWRPVDLAQVKGHLRGYNVTYWREGSQRKHSKRHIHKDHVVVPANTTSVILSGLRPYSSYHLEVQAFNGRGSGPASEFTFSTPEGVPGHPEALHLECQSNTSLLLRWQPPLSHNGVLTGYVLSYHPLDEGGKGQLSFNLRDPELRTHNLTDLSPHLRYRFQLQATTKEGPGEAIVREGGTMALSGISDFGNISATAGENYSVVSWVPKEGQCNFRFHILFKALGEEKGGASLSPQYVSYNQSSYTQWDLQPDTDYEIHLFKERMFRHQMAVKTNGTGRVRLPPAGFATE
notes: as for B1
Take B2: the binding entry in assay [1], in assay [4] and in assay [5] was “binds” in each case.

B3: G121S mutant L1Fc chimera (Fc fusion, UniProt P32004 20-1120, looked up)
chain: IQIPEEYEGHHVMEPPVITEQSPRRLVVFPTDDISLKCEASGKPEVQFRWTRDGVHFKPKEELGVTVYQSPHSGSFTITGNNSNFAQRFQGIYRCFASNKLSTAMSHEIRLMAEGAPKWPKETVKPVEVEEGESVVLPCNPPPSAEPLRIYWMNSKILHIKQDERVTMGQNGNLYFANVLTSDNHSDYICHAHFPGTRTIIQKEPIDLRVKATNSMIDRKPRLLFPTNSSSHLVALQGQPLVLECIAEGFPTPTIKWLRPSGPMPADRVTYQNHNKTLQLLKVGEEDDGEYRCLAENSLGSARHAYYVTVEAAPYWLHKPQSHLYGPGETARLDCQVQGRPQPEVTWRINGIPVEELAKDQKYRIQRGALILSNVQPSDTMVTQCEARNRHGLLLANAYIYVVQLPAKILTADNQTYMAVQGSTAYLLCKAFGAPVPSVQWLDEDGTTVLQDERFFPYANGTLGIRDLQANDTGRYFCLAANDQNNVTIMANLKVKDATQITQGPRSTIEKKGSRVTFTCQASFDPSLQPSITWRGDGRDLQELGDSDKYFIEDGRLVIHSLDYSDQGNYSCVASTELDVVESRAQLLVVGSPGPVPRLVLSDLHLLTQSQVRVSWSPAEDHNAPIEKYDIEFEDKEMAPEKWYSLGKVPGNQTSTTLKLSPYVHYTFRVTAINKYGPGEPSPVSETVVTPEAAPEKNPVDVKGEGNETTNMVITWKPLRWMDWNAPQVQYRVQWRPQGTRGPWQEQIVSDPFLVVSNTSTFVPYEIKVQAVNSQGKGPEPQVTIGYSGEDYPQAIPELEGIEILNSSAVLVKWRPVDLAQVKGHLRGYNVTYWREGSQRKHSKRHIHKDHVVVPANTTSVILSGLRPYSSYHLEVQAFNGRGSGPASEFTFSTPEGVPGHPEALHLECQSNTSLLLRWQPPLSHNGVLTGYVLSYHPLDEGGKGQLSFNLRDPELRTHNLTDLSPHLRYRFQLQATTKEGPGEAIVREGGTMALSGISDFGNISATAGENYSVVSWVPKEGQCNFRFHILFKALGEEKGGASLSPQYVSYNQSSYTQWDLQPDTDYEIHLFKERMFRHQMAVKTNGTGRVRLPPAGFATE
notes: also called G121S-L1Fc; not shown: immunoglobulin Fc, human
In the case of B3, the binding entry in assay [6] and in assay [7] was “binds” each time.

(Values after patent US20060058504A1, “Peptides capable of inducing attraction to the axonal growth and their use for treating neurodegenerative diseases” (Centre National de la Recherche Scientific (CNRS), priority 2002, published 2006).)
